Laboratory results: US20030118557A1, “Axon repair” (priority 2001, published 2003)
Some results were stated once for a whole list of compounds, not compound by compound.

B1: GAP-43: growth-associated growth cone protein; chicken GAP-43 transgene expressed in mouse neurons under Thy-1 promoter (protein, UniProt P35001 1-246, looked up)
Neuromodulin: MLCCMRRTKQVEKNEDGDQKIEQDGIKPEDKAHKAATKIQASFRGHITRKKLKGEKKADAPASESEAADKKDEGPAGGAAENKESEASAATEASAADSAQLDEGSKDSSVPAEEKKGNGAADTGSEQPAPQAATPAASSEEKPAAAAETESATKASTDNSPSLKADEAQDKEEPKQADVPAADTTATTTPAAEDATAKATAQPQMETVESSQTEEKTDAVEETKPTESAQQEEVKEEESKADQENA
modifications: transgene in mouse neurons
notes: growth-associated growth cone protein; chicken GAP-43 transgene expressed in mouse neurons under Thy-1 promoter
B2: CAP-23: growth cone protein; chicken CAP-23 transgene expressed in mouse neurons under Thy-1 promoter (protein, UniProt P23614 2-244, looked up)
Brain acid soluble protein 1 …: GGKLSKKKKGYSVNDEKAKDKDKKAEGAATEEEETPKEAEDAQQTTETTEVKENNKEEKVEKDAQVSANKTEEKEGEKEKTVTQEEAQKAEPEKSEAVVDAKVEPQKNNEQAPKQEEPAAASAPAASSEAPKTSEPSSDAKASQPSEATAPSKADDKSKEEGEAKKTEAPATPAAQETKSEVAPASDSKPSSSEAAPSSKETVAATAAPSSTAKASDPSAPPEEAKPSEAPATNSDQTIAVQD
modifications: transgene in mouse neurons
notes: growth cone protein; chicken CAP-23 transgene expressed in mouse neurons under Thy-1 promoter

System: spinal axons of DRG neurons
Assay: spinal axon regeneration in vivo into a peripheral nerve graft (retrograde diI labeling)
Set-up: species or system mice
Details: for retrogradely labeled cells per ganglion: absence of a peripheral nerve injury, axons regenerated at least 5 mm into graft, 1-4 months; for retrograde labeling, cells per ganglion: side subjected to peripheral nerve injury, mice expressing either gene alone

Row | Molecule | retrogradely labeled cells per ganglion | retrograde labeling, cells per ganglion
1 | B1 | 1-2 cells per ganglion | 55-88 cells per ganglion
2 | B2 | 1-2 cells per ganglion | 55-88 cells per ganglion
